Measured values taken from paper PMC8639890.
These are yes or no findings as the source states them, for the method shown. Binding seen in cells or lysates may run through a third protein.

The chains behind the UniProt entries cited, without tags or fusion partners.
UniProt P02340: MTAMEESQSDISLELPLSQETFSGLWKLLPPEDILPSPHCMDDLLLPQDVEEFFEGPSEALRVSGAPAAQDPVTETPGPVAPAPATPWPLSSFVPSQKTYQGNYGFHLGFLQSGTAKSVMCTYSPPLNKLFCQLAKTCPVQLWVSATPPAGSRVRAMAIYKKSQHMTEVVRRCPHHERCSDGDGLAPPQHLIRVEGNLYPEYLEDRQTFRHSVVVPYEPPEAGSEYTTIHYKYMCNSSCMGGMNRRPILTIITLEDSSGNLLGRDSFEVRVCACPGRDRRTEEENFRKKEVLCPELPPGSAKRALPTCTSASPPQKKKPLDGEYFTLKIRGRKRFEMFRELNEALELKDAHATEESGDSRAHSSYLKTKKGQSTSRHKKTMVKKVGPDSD

Molecular target: p53 tumor suppressor (mouse (endogenous in Mefs)) (UniProt P02340)
Assay: co-IP; Mef lysate (100 mM Tris-HCl pH 8, 100 mM NaCl, 1 mM EDTA, 1% NP-40, 1 mM DTT); 1 mg total protein incubated overnight at 4 °C with 1 μg anti-p53 (1C12) and protein G-Dynabeads; immunoblot with anti-p53 and anti-E4F1

binding: no binding
B1: E4F1 mutant lacking its p53 interaction domain (Δ520–569) (protein, UniProt Q66K89)
chain: MEGAMAVRVTAAHTAEAQAEAGREAGEGAVAAVAAALAPSGFLGLPAPFSEEDEDDVHRCGRCQAEFTALEDFVQHKIQKACQRAPPEALPATPATTALLGQEVVPAAPGPEEPITVAHIVVEAASLAADISHASDLVGGGHIKEVIVAAEAELGDGEMAEAPGSPRQQGLGLAGEGEQAQVKLLVNKDGRYVCALCHKTFKTGSILKAHMVTHSSRKDHECKLCGASFRTKGSLIRHHRRHTDERPYKCSKCGKSFRESGALTRHLKSLTPCTEKIRFSVSKDVVVSKEDARAGSGAGAAGLGTATSSVTGEPIETSPVIHLVTDAKGTVIHEVHVQMQELSLGMKALAPEPPVSQELPCSSEGSRENLLHQAMQNSGIVLERAAGEEGALEPAPAAGSSPQPLAVAAPQLPVLEVQPLETQVASEASAVPRTHPCPQCSETFPTAATLEAHKRGHTGPRPFACAQCGKAFPKAYLLKKHQEVHVRERRFRCGDCGKLYKTIAHVRGHRRVHSDERPYTGEKPFKCYKCGRGFAEHGTLNRHLRTKGGCLLEVEELLVSEDSPAAATTVLTEDPHTVLVEFSSVVADTQEYIIEATADDAETSEATEIIEGTQTEVDSHIMKVVQQIVHQASAGHQIIVQNVTMDEETALGPEAAAADTITIATPESLTEQVAMTLASAISEGTVLAARAGTSGTEQATVTMVSSEDIEILEHAGELVIASPEGQLEVQTVIV
